Test results as given in paper doi:10.1101/2024.06.27.601040 (bioRxiv, 2024).

The chains behind the UniProt entries cited, without tags or fusion partners.
UniProt Q02386: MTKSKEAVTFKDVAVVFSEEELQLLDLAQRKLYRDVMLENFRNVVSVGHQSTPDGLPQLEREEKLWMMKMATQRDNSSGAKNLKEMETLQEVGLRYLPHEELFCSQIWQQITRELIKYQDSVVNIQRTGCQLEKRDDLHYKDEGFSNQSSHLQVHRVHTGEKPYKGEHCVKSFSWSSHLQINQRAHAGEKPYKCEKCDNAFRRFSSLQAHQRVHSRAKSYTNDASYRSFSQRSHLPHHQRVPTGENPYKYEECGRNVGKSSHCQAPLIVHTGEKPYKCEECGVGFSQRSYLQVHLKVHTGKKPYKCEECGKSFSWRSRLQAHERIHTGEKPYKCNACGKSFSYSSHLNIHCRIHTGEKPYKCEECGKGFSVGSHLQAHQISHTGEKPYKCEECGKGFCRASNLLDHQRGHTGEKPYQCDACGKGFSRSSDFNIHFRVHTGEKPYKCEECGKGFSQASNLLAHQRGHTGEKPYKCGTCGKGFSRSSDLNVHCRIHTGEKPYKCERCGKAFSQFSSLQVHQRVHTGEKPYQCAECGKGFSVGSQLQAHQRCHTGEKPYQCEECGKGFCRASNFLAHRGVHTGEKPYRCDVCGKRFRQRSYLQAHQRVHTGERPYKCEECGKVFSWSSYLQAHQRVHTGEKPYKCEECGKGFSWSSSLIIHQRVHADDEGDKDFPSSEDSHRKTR
UniProt Q8IY18: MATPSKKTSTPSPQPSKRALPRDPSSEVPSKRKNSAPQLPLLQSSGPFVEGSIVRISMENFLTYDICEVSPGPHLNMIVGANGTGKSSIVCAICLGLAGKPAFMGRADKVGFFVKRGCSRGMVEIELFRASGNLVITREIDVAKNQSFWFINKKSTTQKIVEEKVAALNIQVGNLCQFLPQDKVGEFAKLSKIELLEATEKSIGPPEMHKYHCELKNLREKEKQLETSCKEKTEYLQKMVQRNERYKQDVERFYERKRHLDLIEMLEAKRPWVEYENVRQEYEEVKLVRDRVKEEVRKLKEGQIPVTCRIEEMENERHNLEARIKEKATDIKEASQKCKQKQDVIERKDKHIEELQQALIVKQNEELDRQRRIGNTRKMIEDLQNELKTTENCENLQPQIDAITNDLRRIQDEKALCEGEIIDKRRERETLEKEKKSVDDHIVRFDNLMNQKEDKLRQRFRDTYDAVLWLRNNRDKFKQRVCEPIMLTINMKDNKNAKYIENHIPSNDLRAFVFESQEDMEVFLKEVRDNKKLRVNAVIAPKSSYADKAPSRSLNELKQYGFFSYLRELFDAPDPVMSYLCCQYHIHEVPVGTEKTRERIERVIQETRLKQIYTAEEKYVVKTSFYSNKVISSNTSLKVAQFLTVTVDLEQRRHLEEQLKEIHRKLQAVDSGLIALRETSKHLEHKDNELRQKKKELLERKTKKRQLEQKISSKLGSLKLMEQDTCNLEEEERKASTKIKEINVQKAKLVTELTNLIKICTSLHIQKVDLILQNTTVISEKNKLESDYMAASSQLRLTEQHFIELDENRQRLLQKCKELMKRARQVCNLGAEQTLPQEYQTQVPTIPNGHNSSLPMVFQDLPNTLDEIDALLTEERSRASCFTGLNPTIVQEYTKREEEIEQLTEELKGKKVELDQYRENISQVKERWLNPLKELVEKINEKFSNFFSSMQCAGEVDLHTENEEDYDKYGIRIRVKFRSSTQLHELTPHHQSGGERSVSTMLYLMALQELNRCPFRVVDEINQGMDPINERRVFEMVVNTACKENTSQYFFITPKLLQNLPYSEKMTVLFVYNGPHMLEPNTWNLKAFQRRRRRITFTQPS
UniProt Q14974: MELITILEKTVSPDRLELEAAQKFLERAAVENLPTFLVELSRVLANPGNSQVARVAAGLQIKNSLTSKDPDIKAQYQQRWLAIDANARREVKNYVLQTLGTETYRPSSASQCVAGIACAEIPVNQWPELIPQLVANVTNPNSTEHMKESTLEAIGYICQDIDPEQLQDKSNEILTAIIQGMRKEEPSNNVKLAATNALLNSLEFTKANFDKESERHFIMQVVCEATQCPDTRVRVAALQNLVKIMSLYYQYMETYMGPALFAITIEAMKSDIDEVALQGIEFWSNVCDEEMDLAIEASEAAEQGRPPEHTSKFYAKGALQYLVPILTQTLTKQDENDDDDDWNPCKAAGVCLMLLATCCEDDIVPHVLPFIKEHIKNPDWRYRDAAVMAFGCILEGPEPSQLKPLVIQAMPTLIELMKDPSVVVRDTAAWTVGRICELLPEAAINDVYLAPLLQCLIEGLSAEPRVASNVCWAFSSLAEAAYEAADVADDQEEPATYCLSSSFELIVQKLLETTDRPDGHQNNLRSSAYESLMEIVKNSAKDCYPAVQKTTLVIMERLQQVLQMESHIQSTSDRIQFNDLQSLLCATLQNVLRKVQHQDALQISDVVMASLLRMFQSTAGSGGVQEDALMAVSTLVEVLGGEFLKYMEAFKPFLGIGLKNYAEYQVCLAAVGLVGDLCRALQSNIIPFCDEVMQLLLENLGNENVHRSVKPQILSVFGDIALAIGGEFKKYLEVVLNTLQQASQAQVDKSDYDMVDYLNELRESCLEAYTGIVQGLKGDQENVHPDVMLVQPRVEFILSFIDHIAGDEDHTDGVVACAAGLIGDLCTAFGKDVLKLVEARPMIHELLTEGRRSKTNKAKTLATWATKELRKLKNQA
UniProt O94851: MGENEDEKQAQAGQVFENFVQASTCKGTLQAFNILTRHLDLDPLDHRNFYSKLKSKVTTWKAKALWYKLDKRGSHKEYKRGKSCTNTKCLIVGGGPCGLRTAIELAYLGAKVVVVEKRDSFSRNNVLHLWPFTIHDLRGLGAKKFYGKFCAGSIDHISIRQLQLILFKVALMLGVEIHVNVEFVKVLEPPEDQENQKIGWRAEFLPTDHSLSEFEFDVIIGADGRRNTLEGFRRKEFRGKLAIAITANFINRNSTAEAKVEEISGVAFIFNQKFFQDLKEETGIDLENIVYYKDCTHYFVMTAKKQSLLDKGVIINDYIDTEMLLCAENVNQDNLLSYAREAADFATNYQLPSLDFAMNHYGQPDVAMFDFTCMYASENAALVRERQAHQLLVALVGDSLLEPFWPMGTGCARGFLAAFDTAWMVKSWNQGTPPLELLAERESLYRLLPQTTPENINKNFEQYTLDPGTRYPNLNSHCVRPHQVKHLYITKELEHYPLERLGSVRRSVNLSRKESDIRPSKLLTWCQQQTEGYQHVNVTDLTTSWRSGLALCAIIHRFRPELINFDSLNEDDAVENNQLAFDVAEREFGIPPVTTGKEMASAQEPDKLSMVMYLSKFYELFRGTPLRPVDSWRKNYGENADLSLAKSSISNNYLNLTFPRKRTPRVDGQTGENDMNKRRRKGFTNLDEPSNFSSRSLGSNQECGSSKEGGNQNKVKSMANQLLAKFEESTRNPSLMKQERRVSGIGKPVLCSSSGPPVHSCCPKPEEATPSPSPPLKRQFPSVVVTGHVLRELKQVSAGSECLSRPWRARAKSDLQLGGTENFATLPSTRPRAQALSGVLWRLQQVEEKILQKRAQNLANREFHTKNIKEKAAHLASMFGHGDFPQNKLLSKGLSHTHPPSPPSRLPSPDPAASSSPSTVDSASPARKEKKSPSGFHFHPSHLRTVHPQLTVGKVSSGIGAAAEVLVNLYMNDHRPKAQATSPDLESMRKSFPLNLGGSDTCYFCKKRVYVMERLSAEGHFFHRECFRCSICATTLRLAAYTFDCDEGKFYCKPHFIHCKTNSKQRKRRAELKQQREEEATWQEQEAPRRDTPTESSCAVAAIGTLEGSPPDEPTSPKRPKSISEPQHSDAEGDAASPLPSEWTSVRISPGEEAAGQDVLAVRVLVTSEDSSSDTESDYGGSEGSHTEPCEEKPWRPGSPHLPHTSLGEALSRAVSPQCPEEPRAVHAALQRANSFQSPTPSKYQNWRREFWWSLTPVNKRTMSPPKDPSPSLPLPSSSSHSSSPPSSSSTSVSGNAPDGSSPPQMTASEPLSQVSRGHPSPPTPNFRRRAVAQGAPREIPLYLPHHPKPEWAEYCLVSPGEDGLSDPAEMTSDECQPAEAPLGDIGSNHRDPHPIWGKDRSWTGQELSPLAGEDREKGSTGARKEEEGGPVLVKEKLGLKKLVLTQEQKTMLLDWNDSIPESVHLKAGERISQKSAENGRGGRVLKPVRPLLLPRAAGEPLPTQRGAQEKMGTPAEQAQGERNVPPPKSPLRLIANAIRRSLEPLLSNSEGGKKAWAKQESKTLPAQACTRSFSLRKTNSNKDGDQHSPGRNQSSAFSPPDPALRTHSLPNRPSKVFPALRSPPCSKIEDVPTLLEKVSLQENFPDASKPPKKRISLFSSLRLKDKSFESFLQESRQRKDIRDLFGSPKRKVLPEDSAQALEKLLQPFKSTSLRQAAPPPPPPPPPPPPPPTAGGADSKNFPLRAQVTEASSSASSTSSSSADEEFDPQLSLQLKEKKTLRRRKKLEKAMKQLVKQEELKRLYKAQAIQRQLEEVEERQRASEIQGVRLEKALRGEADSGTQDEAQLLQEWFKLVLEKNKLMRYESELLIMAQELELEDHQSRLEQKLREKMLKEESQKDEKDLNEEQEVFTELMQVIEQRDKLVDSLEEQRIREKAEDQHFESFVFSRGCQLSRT
UniProt Q9UKK3: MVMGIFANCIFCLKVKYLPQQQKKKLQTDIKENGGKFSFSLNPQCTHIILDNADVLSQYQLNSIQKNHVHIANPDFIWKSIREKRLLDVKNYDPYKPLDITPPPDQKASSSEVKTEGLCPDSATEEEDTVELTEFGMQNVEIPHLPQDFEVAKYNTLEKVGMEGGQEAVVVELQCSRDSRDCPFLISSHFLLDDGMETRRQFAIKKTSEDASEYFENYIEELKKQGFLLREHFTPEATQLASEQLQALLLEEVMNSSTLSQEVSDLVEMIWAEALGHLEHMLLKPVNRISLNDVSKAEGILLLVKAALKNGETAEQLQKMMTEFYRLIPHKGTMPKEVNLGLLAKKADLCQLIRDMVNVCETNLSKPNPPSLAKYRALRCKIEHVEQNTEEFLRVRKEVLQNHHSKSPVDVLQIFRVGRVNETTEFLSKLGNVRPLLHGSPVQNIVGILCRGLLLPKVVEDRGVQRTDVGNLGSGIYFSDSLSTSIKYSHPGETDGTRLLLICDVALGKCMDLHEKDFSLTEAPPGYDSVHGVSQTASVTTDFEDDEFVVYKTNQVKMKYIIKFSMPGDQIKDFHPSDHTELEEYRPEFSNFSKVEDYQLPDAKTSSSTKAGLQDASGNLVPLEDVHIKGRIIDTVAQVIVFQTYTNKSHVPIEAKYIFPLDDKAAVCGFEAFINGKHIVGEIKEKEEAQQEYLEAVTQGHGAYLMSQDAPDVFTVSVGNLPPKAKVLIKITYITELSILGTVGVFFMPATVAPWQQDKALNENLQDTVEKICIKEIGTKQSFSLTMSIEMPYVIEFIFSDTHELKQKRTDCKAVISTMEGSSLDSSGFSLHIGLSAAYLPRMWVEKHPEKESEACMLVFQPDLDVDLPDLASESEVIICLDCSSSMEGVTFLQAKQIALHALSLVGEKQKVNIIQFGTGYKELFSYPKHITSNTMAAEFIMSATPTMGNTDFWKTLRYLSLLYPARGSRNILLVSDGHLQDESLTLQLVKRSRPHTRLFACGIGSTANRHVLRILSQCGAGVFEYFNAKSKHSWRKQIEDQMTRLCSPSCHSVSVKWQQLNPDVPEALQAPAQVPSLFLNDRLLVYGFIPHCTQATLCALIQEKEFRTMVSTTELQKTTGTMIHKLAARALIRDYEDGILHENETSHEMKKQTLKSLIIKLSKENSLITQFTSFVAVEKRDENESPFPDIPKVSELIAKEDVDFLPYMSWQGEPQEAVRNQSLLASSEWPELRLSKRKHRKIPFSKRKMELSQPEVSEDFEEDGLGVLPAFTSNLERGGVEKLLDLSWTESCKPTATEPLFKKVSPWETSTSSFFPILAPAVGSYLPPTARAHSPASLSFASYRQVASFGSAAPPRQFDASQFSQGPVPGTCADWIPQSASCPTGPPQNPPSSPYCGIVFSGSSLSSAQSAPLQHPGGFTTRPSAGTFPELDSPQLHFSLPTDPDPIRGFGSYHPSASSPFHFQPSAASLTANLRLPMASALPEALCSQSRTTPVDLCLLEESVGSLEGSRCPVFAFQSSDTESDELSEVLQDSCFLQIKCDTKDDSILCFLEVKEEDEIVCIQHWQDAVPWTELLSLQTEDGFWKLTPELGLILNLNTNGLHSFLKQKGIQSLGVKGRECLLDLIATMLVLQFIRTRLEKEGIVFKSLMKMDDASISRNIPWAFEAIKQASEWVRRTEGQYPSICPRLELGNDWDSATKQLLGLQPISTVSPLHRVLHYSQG

target: endogenous MVP (native vault) of A549 cells (human (endogenous in A549)) (UniProt Q14764); experiment: affinity purification with mass spectrometry

Molecule | binding
ZNF45 (from UniProt Q02386 1-682) | binds
SMC5 (from UniProt Q8IY18 1-1101) | binds
TEP1 (from UniProt Q99973 1-2627) | binds
LMTK2 (from UniProt Q8IWU2 1-1503) (enzyme) | binds
KPNB1 (from UniProt Q14974 1-876) | binds
MICAL2 (from UniProt O94851 1-1957) | binds
ZNF420 (from UniProt Q8TAQ5 1-688) | binds
PUM2 (from UniProt Q8TB72 1-1066) | binds
SLC25A1 (from UniProt P53007 14-311) | binds
endogenous PARP4 of A549 cells (from UniProt Q9UKK3 1-1724) (enzyme) | binds
PUM1 (from UniProt Q14671 1-1186) | binds

target: endogenous MVP (native vault) of A549 cells (human (endogenous in A549)) (UniProt Q14764); experiment: affinity purification with mass spectrometry; remark: another data set of the same source

Molecule | binding
SMC6 (protein, UniProt Q96SB8 1-1091) MAKRKEENFSSPKNAKRPRQEELEDFDKDGDEDECKGTTLTAAEVGIIESIHLKNFMCHSMLGPFKFGSNVNFVVGNNGSGKSAVLTALIVGLGGRAVATNRGSSLKGFVKDGQNSADISITLRNRGDDAFKASVYGNSILIQQHISIDGSRSYKLKSATGSVVSTRKEELIAILDHFNIQVDNPVSVLTQEMSKQFLQSKNEGDKYKFFMKATQLEQMKEDYSYIMETKERTKEQIHQGEERLTELKRQCVEKEERFQSIAGLSTMKTNLESLKHEMAWAVVNEIEKQLNAIRDNIKIGEDRAARLDRKMEEQQVRLNEAEQKYKDIQDKLEKISEETNARAPECMALKADVVAKKRAYNEAEVLYNRSLNEYKALKKDDEQLCKRIEELKKSTDQSLEPERLERQKKISWLKERVKAFQNQENSVNQEIEQFQQAIEKDKEEHGKIKREELDVKHALSYNQRQLKELKDSKTDRLKRFGPNVPALLEAIDDAYRQGHFTYKPVGPLGACIHLRDPELALAIESCLKGLLQAYCCHNHADERVLQALMKRFYLPGTSRPPIIVSEFRNEIYDVRHRAAYHPDFPTVLTALEIDNAVVANSLIDMRGIETVLLIKNNSVARAVMQSQKPPKNCREAFTADGDQVFAGRYYSSENTRPKFLSRDVDSEISDLENEVENKTAQILNLQQHLSALEKDIKHNEELLKRCQLHYKELKMKIRKNISEIRELENIEEHQSVDIATLEDEAQENKSKMKMVEEHMEQQKENMEHLKSLKIEAENKYDAIKFKINQLSELADPLKDELNLADSEVDNQKRGKRHYEEKQKEHLDTLNKKKRELDMKEKELEEKMSQARQICPERIEVEKSASILDKEINRLRQKIQAEHASHGDREEIMRQYQEARETYLDLDSKVRTLKKFIKLLGEIMEHRFKTYQQFRRCLTLRCKLYFDNLLSQRAYCGKMNFDHKNETLSISVQPGEGNKAAFNDMRALSGGERSFSTVCFILSLWSIAESPFRCLDEFDVYMDMVNRRIAMDLILKMADSQRFRQFILLTPQSMSSLPSSKLIRILRMSDPERGQTTLPFRPVTQEEDDDQR | binds
GMPPA (protein, UniProt Q96IJ6 1-420) MLKAVILIGGPQKGTRFRPLSFEVPKPLFPVAGVPMIQHHIEACAQVPGMQEILLIGFYQPDEPLTQFLEAAQQEFNLPVRYLQEFAPLGTGGGLYHFRDQILAGSPEAFFVLNADVCSDFPLSAMLEAHRRQRHPFLLLGTTANRTQSLNYGCIVENPQTHEVLHYVEKPSTFISDIINCGIYLFSPEALKPLRDVFQRNQQDGQLEDSPGLWPGAGTIRLEQDVFSALAGQGQIYVHLTDGIWSQIKSAGSALYASRLYLSRYQDTHPERLAKHTPGGPWIRGNVYIHPTAKVAPSAVLGPNVSIGKGVTVGEGVRLRESIVLHGATLQEHTCVLHSIVGWGSTVGRWARVEGTPSDPNPNDPRARMDSESLFKDGKLLPAITILGCRVRIPAEVLILNSIVLPHKELSRSFTNQIIL | binds
ACAD11 (enzyme, UniProt Q709F0 1-780) MKPGATGESDLAEVLPQHKFDSKSLEAYLNQHLSGFGAEREATLTIAQYRAGKSNPTFYLQKGFQTYVLRKKPPGSLLPKAHQIDREFKVQKALFSIGFPVPKPILYCSDTSVIGTEFYVMEHVQGRIFRDLTIPGLSPAERSAIYVATVETLAQLHSLNIQSLQLEGYGIGAGYCKRQVSTWTKQYQAAAHQDIPAMQQLSEWLMKNLPDNDNEENLIHGDFRLDNIVFHPKECRVIAVLDWELSTIGHPLSDLAHFSLFYFWPRTVPMINQGSYSENSGIPSMEELISIYCRCRGINSILPNWNFFLALSYFKMAGIAQGVYSRYLLGNNSSEDSFLFANIVQPLAETGLQLSKRTFSTVLPQIDTTGQLFVQTRKGQEVLIKVKHFMKQHILPAEKEVTEFYVQNENSVDKWGKPLVIDKLKEMAKVEGLWNLFLPAVSGLSHVDYALIAEETGKCFFAPDVFNCQAPDTGNMEVLHLYGSEEQKKQWLEPLLQGNITSCFCMTEPDVASSDATNIECSIQRDEDSYVINGKKWWSSGAGNPKCKIAIVLGRTQNTSLSRHKQHSMILVPMNTPGVKIIRPLSVFGYTDNFHGGHFEIHFNQVRVPATNLILGEGRGFEISQGRLGPGRIHHCMRTVGLAERALQIMCERATQRIAFKKKLYAHEVVAHWIAESRIAIEKIRLLTLKAAHSMDTLGSAGAKKEIAMIKVAAPRAVSKIVDWAIQVCGGAGVSQDYPLANMYAITRVLRLADGPDEVHLSAIATMELRDQAKRLTAKI | binds

These are yes or no findings as the source states them, for the method shown. Binding seen in cells or lysates may run through a third protein. Here binding means that the protein was enriched with, or labelled near, the bait; the list need not be complete.
